# Reference: patent publication US8936667B2, “Aqueous leaching process for recovery of precious metals with addition of di-thiooxamide ligand” (Anglo Operations Limited, priority 2009, dated 2015)
# Tests used:
# [1] = Leaching of Witwatersrand gold ore, parameter studies (Example 2)
# Source text: A head sample was submitted with every batch of samples in order to minimise errors caused by discrepancies in analysis among batches. The metal extractions for a particular batch of samples were therefore calculated using the head sample analysis from the same batch.
# Deionised water was used in all preparation, dissolution, leach and washing steps.
# The leach procedure was as follows:
# The required amounts of ligand and alkaline water were mixed in a jacketed leach reactor until the ligand was fully dissolved. The ore was then added to the solution (unless otherwise specified, initial solids concentration was 17% m/m) and the reactor lid was fitted on. A stirring impeller, pH and (Ag/AgCl) redox electrodes, titration dispensing tube, temperature probe and gas distribution tube (if oxygen was used) were fitted into ports in the lid. The ore was then leached for the required amount of time. A water bath was used to maintain the leach temperature for the duration of the leach. The leach pH was controlled with an autotitrator. If oxygen was the oxidant, a mass flow controller was used to control oxygen-flow into the solution. At the end of the leach period, the slurry was filtered and the residue was given at least two water washes using water of the same pH as the leach solution, followed by a final wash with deionised water. The leach filtrate, wash solutions and dried solid residue were then submitted for analysis.
# [2] = Leaching of gold ore with alkaline dithiooxamide solution (Example 1); details: 25° C., 24 h, O2 2 l/min
# [3] = DTO leaching of PGM concentrate 1; details: 1 g/l DTO, 25° C., 24 h leach time
# [4] = DTO purity 98.0%, final pH 13.6, final Eh 61.9 mV vs SHE
# [5] = DTO purity 98.5%, final pH 13.3, final Eh 60.9 mV vs SHE
smiles,measurement,setting,value
"NC(=S)C(N)=S [DTO, dithiooxamide]",Gold extracted,"[1]; 0.38 g/l DTO, 25° C., 24 h, pH 13.5, O2",Over 90%
same,Gold extraction,"[1]; between pH 11-12, 25° C., 24 h, O2, 0.9 g/l DTO",significantly lower extractions
same,Gold extraction,"[1]; oxygen alone 3 l/min, 24 h sample, 25° C., 0.9 g/l DTO",Greater than 90%
same,Gold extraction,"[1]; oxygen flow rates of 2.5 to 3 l/min, 25° C., 24 h, pH 12 control, 0.9 g/l DTO",> 90%
same,Gold extraction,"[1]; pH 12-14 range, 25° C., 24 h, O2, 0.9 g/l DTO",> 90%
same,Gold extraction,[1]; solution Eh above 60 mV (vs SHE),> 90%
same,"Metal Extraction, % Al",[2]; [4],16%
same,"Metal Extraction, % Au",[2]; [4],91%
same,"Metal Extraction, % Ce",[2]; [4],4.1%
same,"Metal Extraction, % Fe",[2]; [4],<0.05%
same,"Metal Extraction, % Si",[2]; [4],5.7%
same,"Metal Extraction, % U",[2]; [4],3.7%
same,"Metal Extraction, % Al",[2]; [5],11%
same,"Metal Extraction, % Au",[2]; [5],97%
same,"Metal Extraction, % Ce",[2]; [5],<0.00005%
same,"Metal Extraction, % Fe",[2]; [5],<0.05%
same,"Metal Extraction, % Si",[2]; [5],11%
same,"Metal Extraction, % U",[2]; [5],4.3%
same,"Metal extractions, % Au",[3],38% and 21% and 28%
same,"Metal extractions, % Pd",[3],27% and 28% and 24%
same,"Metal extractions, % Pt",[3],~40% and 37% and 38%

# Values joined by “and” are separate entries in the source; they are usually repeats but may differ in a detail not shown here. Equal values may be shown once.
